Test [1] deals with recombinant human protein Notch4 (human) (UniProt Q99466). The test can be described thus: co-immunoprecipitation with biotinylated Notch on streptavidin beads / SPR (Proteon XPR36) on immobilized biotinylated Notch.
Test [2] addresses recombinant human protein Notch1 (human) (UniProt P46531). Described as above.

Sequences of proteins named here, by UniProt entry; tags and fusion partners are left off. Residues count along the entry.
UniProt Q99466, residues 24-549: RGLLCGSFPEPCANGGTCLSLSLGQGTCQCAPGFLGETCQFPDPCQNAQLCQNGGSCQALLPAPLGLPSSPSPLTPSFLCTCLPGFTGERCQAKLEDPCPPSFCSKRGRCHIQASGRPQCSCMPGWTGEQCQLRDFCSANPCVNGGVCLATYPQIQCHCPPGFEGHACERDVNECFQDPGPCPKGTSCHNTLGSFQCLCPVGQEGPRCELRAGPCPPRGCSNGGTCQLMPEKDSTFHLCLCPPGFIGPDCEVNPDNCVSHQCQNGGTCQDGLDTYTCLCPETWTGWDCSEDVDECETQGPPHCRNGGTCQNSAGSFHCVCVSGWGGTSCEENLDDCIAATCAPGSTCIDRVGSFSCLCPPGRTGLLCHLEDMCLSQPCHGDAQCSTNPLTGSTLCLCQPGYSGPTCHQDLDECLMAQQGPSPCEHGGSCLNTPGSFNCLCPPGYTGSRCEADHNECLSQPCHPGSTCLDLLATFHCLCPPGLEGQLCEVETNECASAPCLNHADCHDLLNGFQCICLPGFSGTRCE
UniProt P46531, residues 19-526: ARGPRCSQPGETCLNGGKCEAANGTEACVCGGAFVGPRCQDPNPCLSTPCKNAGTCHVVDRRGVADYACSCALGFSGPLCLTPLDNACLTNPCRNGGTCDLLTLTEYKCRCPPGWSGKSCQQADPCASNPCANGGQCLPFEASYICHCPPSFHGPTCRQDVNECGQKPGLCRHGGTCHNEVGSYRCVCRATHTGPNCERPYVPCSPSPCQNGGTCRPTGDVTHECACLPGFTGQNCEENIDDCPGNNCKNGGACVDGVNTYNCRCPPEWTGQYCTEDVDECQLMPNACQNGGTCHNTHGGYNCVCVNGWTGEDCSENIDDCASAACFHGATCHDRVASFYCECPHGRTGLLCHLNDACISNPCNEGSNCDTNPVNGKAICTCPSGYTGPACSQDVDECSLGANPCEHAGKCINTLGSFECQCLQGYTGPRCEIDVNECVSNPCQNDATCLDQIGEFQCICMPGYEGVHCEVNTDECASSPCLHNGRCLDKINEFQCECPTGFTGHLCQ

These are yes or no findings as the source states them, for the method shown. In cells and extracts the contact can be indirect. Some entries that bind do so weakly or less than the wild type. Where a sequence is shown, tags or fusion partners need not be part of it.

B1: fusion hDII4-hFc protein with the amino acid sequence of SEQ ID NO: 2 (DSL domain and EGF(1-5) domains of human DII4 fused with the Fc region of human IgG4) (Fc fusion)
chain: YRVICSDNYYGDNCSRLCKKRNDHFGHYVCQPDGNLSCLPGWTGEYCQQPICLSGCHEQNGYCSKPAECLCRPGWQGRLCNECIPHNGCRHGTCSTPWQCTCDEGWGGLFCDQDLNYCTHHSPCKNGATCSNSGQRSYTCTCRPGYTGVDCELELSECDSNPCRNGGSCKDQEDGYHCLCPPGYYGLHCEHSTLSCADSPCFNGGSCRERNQGANYACECPPNFTGSNCEKKVDGSYGPPCPPCPAPEFLGGPSVFLFPPKPKDTLMISRTPEVTCVVVDVSQEDPEVQFNWYVDGVEVHNAKTKPREEQFNSTYRVVSVLTVLHQDWLNGKEYKCKVSNKGLPSSIEKTISKAKGQPREPQVYTLPPSQEEMTKNQVSLTCLVKGFYPSDIAVEWESNGQPENNYKTTPPVLDSDGSFFLYSRLTVDKSRWQEGNVFSCSVMHEALHNHYTQKSLSLSPGK
Consider B1, for which the binding entry in test [1] and in test [2] was “binds” in each case.

B2: fusion hDII4-hFc protein with the amino acid sequence of SEQ ID NO: 4 (DSL domain and EGF(1-8) domains of human DII4 fused with the Fc region of human IgG4) (Fc fusion)
chain: YRVICSDNYYGDNCSRLCKKRNDHFGHYVCQPDGNLSCLPGWTGEYCQQPICLSGCHEQNGYCSKPAECLCRPGWQGRLCNECIPHNGCRHGTCSTPWQCTCDEGWGGLFCDQDLNYCTHHSPCKNGATCSNSGQRSYTCTCRPGYTGVDCELELSECDSNPCRNGGSCKDQEDGYHCLCPPGYYGLHCEHSTLSCADSPCFNGGSCRERNQGANYACECPPNFTGSNCEKKVDRCTSNPCANGGQCLNRGPSRMCRCRPGFTGTYCELHVSDCARNPCAHGGTCHDLENGLMCTCPAGFSGRRCEVRTSIDACASSPCFNRATCYTDLSTDTFVCNCPYGFVGSGSYGPPCPPCPAPEFLGGPSVFLFPPKPKDTLMISRTPEVTCVVVDVSQEDPEVQFNWYVDGVEVHNAKTKPREEQFNSTYRVVSVLTVLHQDWLNGKEYKCKVSNKGLPSSIEKTISKAKGQPREPQVYTLPPSQEEMTKNQVSLTCLVKGFYPSDIAVEWESNGQPENNYKTTPPVLDSDGSFFLYSRLTVDKSRWQEGNVFSCSVMHEALHNHYTQKSLSLSPGK
As to B2, the binding result in test [1] and in test [2] was “binds” in each case.

The values above are taken from EP4417619A1.
